Measurements reported in PubChem BioAssay AID504791 (Drosophila RNAi Screening Center, 2011).
In all, the deposit lists about 23,000 reagents; this is a random part of those that have a named target and a result. Of all reagents, 199 (0.86%) got an active call. 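Plate-scaled ratios behind the calls are not deposited; printed light signals are raw; many rows marked increased or decreased are still called inactive.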 A number with no mark means an inactive call. The numbers tell different reagents against one gene apart. Names joined by + are all predicted targets of the reagent. No sequences are given here. The record does not give: the direction of the score.

Purpose: 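Genes of the fly required for silencing by miRNA, siRNA or endo-siRNA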 (primary screen)
Cell system: Drosophila S2-derived reporter cells
Reagents: long dsRNA against Drosophila genes, about 150-250 ng dsRNA per well (siRNA assay); about 80-120 ng (miRNA assay)
Time to read-out: about 5 days (siRNA assay); about 4 days (miRNA assay)
Challenge: copper sulfate induction of reporters: 25 µM (siRNA assay); 200 mM stated (miRNA assay), 1-2 days before reading
Read-out: 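Dual luciferase assay: Renilla to firefly signal ratio in each well, scaled to the mean ratio of its plate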
Units: stable assay Renilla, run 1 in luminescence; stable assay firefly, run 1 in luminescence
Rule for the call: 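First-pass picks had plate-scaled ratios over 1.5 for the siRNA assay, over 1.6 for the miRNA assay, or under 0.6; two distinct dsRNAs had to score alike on retest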

CG14265 scored stable assay Renilla, run 1 = 6974; stable assay firefly, run 1 = 4.33e5.
Mal-A3 (Maltase A3) gave stable assay Renilla, run 1 = 7087; stable assay firefly, run 1 = 3.40e5.
After knock-down of Eig71Ed (Ecdysone-induced gene 71Ed) the results were stable assay Renilla, run 1 = 7319; stable assay firefly, run 1 = 4.52e5.
Against Prat2 (Phosphoribosylamidotransferase 2) the deposit lists stable assay Renilla, run 1 = 7963; stable assay firefly, run 1 = 5.12e5.
Silencing of CG9737 gave: stable assay Renilla, run 1 = 5974; stable assay firefly, run 1 = 4.89e5.
Against Rfk (Riboflavin kinase), the entry reads stable assay Renilla, run 1 = 8662; stable assay firefly, run 1 = 5.58e5.
After knock-down of CG11113 the results were stable assay Renilla, run 1 = 6830; stable assay firefly, run 1 = 4.11e5.
ais (aramis) gave stable assay Renilla, run 1 = 7560; stable assay firefly, run 1 = 2.70e5.
After knock-down of klhl10 (kelch like family member 10) #1 the results were stable siRNA reporter change reporter ratio raised past the hit cutoff; stable assay Renilla, run 1 = 8384; stable assay firefly, run 1 = 3.26e5.
After knock-down of klhl10 (kelch like family member 10) #2, the screen gave stable assay Renilla, run 1 = 3955; stable assay firefly, run 1 = 3.08e5.
Against klhl10 (kelch like family member 10) #3, the entry reads stable assay Renilla, run 1 = 4679; stable assay firefly, run 1 = 2.40e5.
klhl10 (kelch like family member 10) #4 gave stable assay Renilla, run 1 = 6020; stable assay firefly, run 1 = 4.57e5.
Silencing of CG32712 gave: stable assay Renilla, run 1 = 9282; stable assay firefly, run 1 = 4.57e5.
Knock-down of tj (traffic jam) resulted in: stable assay Renilla, run 1 = 6543; stable assay firefly, run 1 = 3.49e5.
CG44422 #1 gave stable assay Renilla, run 1 = 5700; stable assay firefly, run 1 = 5.40e5.
Against CG44422 #2 the deposit lists stable assay Renilla, run 1 = 4675; stable assay firefly, run 1 = 4.26e5.
Knock-down of CG44422 #3 came out at: stable assay Renilla, run 1 = 5891; stable assay firefly, run 1 = 3.60e5.
CG44422 #4 scored stable assay Renilla, run 1 = 2220; stable assay firefly, run 1 = 2.52e5.
After knock-down of CG4678 #1, the screen gave stable assay Renilla, run 1 = 5631; stable assay firefly, run 1 = 4.39e5.
CG4678 #2 showed stable assay Renilla, run 1 = 5643; stable assay firefly, run 1 = 4.03e5.
CG3176 + CR18166 + CG32817 #1 showed stable assay Renilla, run 1 = 7176; stable assay firefly, run 1 = 3.36e5.
With knock-down of CG3176 + CR18166 + CG32817 #2, the screen gave stable assay Renilla, run 1 = 6672; stable assay firefly, run 1 = 2.61e5.
With knock-down of CG3176 + CR18166 + CG32817 #3, the screen gave stable assay Renilla, run 1 = 9707; stable assay firefly, run 1 = 5.37e5.
For CG17258 #1, the entry reads stable siRNA reporter change reporter ratio lowered past the hit cutoff; stable assay Renilla, run 1 = 7418; stable assay firefly, run 1 = 6.97e5.
After knock-down of CG17258 #2, the record shows stable assay Renilla, run 1 = 5026; stable assay firefly, run 1 = 5.90e5.
Depletion of CG9380 gave: stable assay Renilla, run 1 = 7254; stable assay firefly, run 1 = 5.50e5.
With knock-down of CG7715, the record shows stable assay Renilla, run 1 = 6434; stable assay firefly, run 1 = 3.55e5.
CG6191 #1 gave stable assay Renilla, run 1 = 7940; stable assay firefly, run 1 = 3.96e5.
CG6191 #2 scored stable assay Renilla, run 1 = 4867; stable assay firefly, run 1 = 2.63e5.
